# This is one part of the list.
# B1: PX9961Q-bfa-504-27-504 (Bacteroides fragilis) (protein)
# chain: NDWLDRKPADGIPSEDAITNYNDALTARTGMYDGIQGNSNATSYYGARMFYYGDVRADDMQARTQGMRSSSCYEMLYTVDDAPNMWNIPYNVIRRANRLIEAINEKKVTDATEAQIGKIYSEALVVRALVHFDLVRIYGMPYTADNGASLGVPVIVKPLERNDLPSRNTVAEVYTQVITDLTDAINSGYLAKDQTPGYINEWAAKALLTRVYLTKGDNENALKVAEDIITNSPYKLWTNEEYVNAWYKSNGAHTNEMIFEVVNASNDDWTDRNGIAYLLNENGYADAIVTKSFMNMLSQDPKDVRIGMVLPAQYDKDLQEEYGDAKIFINKFPADKDDVGEMRLNNLPLLRLSEVYLSAAEAAAKLGGHQDKAAKYLNEIVQRANPEAKAISEADATVERIILERRKEMIGEGQRYFDALRNNETIVRYKDEGDKGYHYSLIKESQSFDRTYFRAILPIPVDETNVNPNLRAQQNPGY
# Experiments:
# Experiment in all cases: glycan array binding signal (z-score within array); higher = stronger binding
# Conditions in all cases: glycan notation: IUPAC condensed, linker removed
# [1] = molecular target: Fuc(a1-2)Gal(b1-4)GlcNAc(b1-3)Gal(b1-4)GlcNAc(b1-3)Gal(b1-4)GlcNAc
# Summary of the method: (§1)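 Glycan array binding is given as a within-array Z-score, which can be read as non-binding when negative. The arrays, 3228 of them, came from the Consortium for Functional Glycomics database and were retained only where the protein sequence was available. Z-scores were averaged across arrays of the same protein sequence at different concentrations or buffers and across linkers.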
# [2] = molecular target: Fuc(a1-2)Gal(b1-4)GlcNAc(b1-3)GalNAc
# Summary of the method: as §1
# [3] = molecular target: Fuc(a1-2)Gal(b1-4)GlcNAc(b1-3)[Fuc(a1-2)Gal(b1-4)GlcNAc(b1-6)]GalNAc
# Summary of the method: as §1
# [4] = molecular target: Fuc(a1-2)Gal(b1-4)GlcNAc(b1-3)[Fuc(a1-3)[Gal(b1-4)]GlcNAc(b1-6)]Gal(b1-4)Glc
# Summary of the method: as §1
# [5] = molecular target: Fuc(a1-2)Gal(b1-4)GlcNAc(b1-6)GalNAc
# Summary of the method: as §1
# [6] = molecular target: Fuc(a1-2)Gal(b1-4)GlcNAc6S
# Summary of the method: as §1
# [7] = molecular target: Fuc(a1-2)Gal(b1-4)[Fuc(a1-3)]GlcNAc
# Summary of the method: as §1
# [8] = molecular target: Fuc(a1-2)Gal(b1-4)[Fuc(a1-3)]GlcNAc(b1-2)Man(a1-3)[Fuc(a1-2)Gal(b1-4)[Fuc(a1-3)]GlcNAc(b1-2)Man(a1-6)]Man(b1-4)GlcNAc(b1-4)[Fuc(a1-6)]GlcNAc
# Summary of the method: as §1
# [9] = molecular target: Fuc(a1-2)Gal(b1-4)[Fuc(a1-3)]GlcNAc(b1-2)[Fuc(a1-2)Gal(b1-4)[Fuc(a1-3)]GlcNAc(b1-4)]Man(a1-3)[Fuc(a1-2)Gal(b1-4)[Fuc(a1-3)]GlcNAc(b1-2)Man(a1-6)]Man(b1-4)GlcNAc(b1-4)GlcNAc
# Summary of the method: as §1
# [10] = molecular target: Fuc(a1-2)Gal(b1-4)[Fuc(a1-3)]GlcNAc(b1-3)Gal(b1-4)[Fuc(a1-3)]GlcNAc
# Summary of the method: as §1
# [11] = molecular target: Fuc(a1-2)Gal(b1-4)[Fuc(a1-3)]GlcNAc(b1-3)Gal(b1-4)[Fuc(a1-3)]GlcNAc(b1-3)Gal(b1-4)[Fuc(a1-3)]GlcNAc
# Summary of the method: as §1
# [12] = molecular target: Fuc(a1-2)Gal(b1-4)[Fuc(a1-3)]GlcNAc(b1-3)GalNAc
# Summary of the method: as §1
# [13] = molecular target: Fuc(a1-2)Gal(b1-4)[Fuc(a1-3)]GlcNAc(b1-3)[Neu5Ac(a2-6)Gal(b1-4)GlcNAc(b1-6)]Gal(b1-4)Glc
# Summary of the method: as §1
# [14] = molecular target: Fuc(a1-2)Gal3S(b1-4)GlcNAc
# Summary of the method: as §1
# [15] = molecular target: Fuc(a1-2)Gal6S(b1-3)GlcNAc
# Summary of the method: as §1
# [16] = molecular target: Fuc(a1-2)Gal6S(b1-3)GlcNAc6S
# Summary of the method: as §1
# Fuc(a1-2)Gal6S(b1-4)Glc = molecular target: Fuc(a1-2)Gal6S(b1-4)Glc
# Summary of the method: as §1
# [17] = molecular target: Fuc(a1-2)Gal6S(b1-4)Glc6S
# Summary of the method: as §1
# Fuc(a1-2)[Gal(a1-3)]Gal = molecular target: Fuc(a1-2)[Gal(a1-3)]Gal
# Summary of the method: as §1
# [18] = molecular target: Fuc(a1-2)[Gal(a1-3)]Gal(b1-3)GalNAc
# Summary of the method: as §1
# [19] = molecular target: Fuc(a1-2)[Gal(a1-3)]Gal(b1-3)GalNAc(b1-3)Gal(a1-4)Gal(b1-4)Glc
# Summary of the method: as §1
# [20] = molecular target: Fuc(a1-2)[Gal(a1-3)]Gal(b1-3)GlcNAc
# Summary of the method: as §1
# [21] = molecular target: Fuc(a1-2)[Gal(a1-3)]Gal(b1-3)GlcNAc(b1-2)Man(a1-3)[Fuc(a1-2)[Gal(a1-3)]Gal(b1-3)GlcNAc(b1-2)Man(a1-6)]Man(b1-4)GlcNAc(b1-4)GlcNAc
# Summary of the method: as §1
# [22] = molecular target: Fuc(a1-2)[Gal(a1-3)]Gal(b1-3)GlcNAc(b1-2)Man(a1-3)[Fuc(a1-2)[Gal(a1-3)]Gal(b1-3)GlcNAc(b1-2)Man(a1-6)]Man(b1-4)GlcNAc(b1-4)[Fuc(a1-6)]GlcNAc
# Summary of the method: as §1
# [23] = molecular target: Fuc(a1-2)[Gal(a1-3)]Gal(b1-3)GlcNAc(b1-3)GalNAc
# Summary of the method: as §1
# [24] = molecular target: Fuc(a1-2)[Gal(a1-3)]Gal(b1-3)GlcNAc(b1-6)GalNAc
# Summary of the method: as §1
# [25] = molecular target: Fuc(a1-2)[Gal(a1-3)]Gal(b1-4)Glc
# Summary of the method: as §1
# [26] = molecular target: Fuc(a1-2)[Gal(a1-3)]Gal(b1-4)GlcNAc
# Summary of the method: as §1
# [27] = molecular target: Fuc(a1-2)[Gal(a1-3)]Gal(b1-4)GlcNAc(b1-2)Man
# Summary of the method: as §1
# [28] = molecular target: Fuc(a1-2)[Gal(a1-3)]Gal(b1-4)GlcNAc(b1-2)Man(a1-3)[Fuc(a1-2)[Gal(a1-3)]Gal(b1-4)GlcNAc(b1-2)Man(a1-6)]Man(b1-4)GlcNAc(b1-4)GlcNAc
# Summary of the method: as §1
# [29] = molecular target: Fuc(a1-2)[Gal(a1-3)]Gal(b1-4)GlcNAc(b1-2)Man(a1-3)[Fuc(a1-2)[Gal(a1-3)]Gal(b1-4)GlcNAc(b1-2)Man(a1-6)]Man(b1-4)GlcNAc(b1-4)[Fuc(a1-6)]GlcNAc
# Summary of the method: as §1
# [30] = molecular target: Fuc(a1-2)[Gal(a1-3)]Gal(b1-4)GlcNAc(b1-3)GalNAc
# Summary of the method: as §1
# [31] = molecular target: Fuc(a1-2)[Gal(a1-3)]Gal(b1-4)GlcNAc(b1-3)[Fuc(a1-2)[Gal(a1-3)]Gal(b1-4)GlcNAc(b1-6)]GalNAc
# Summary of the method: as §1
# [32] = molecular target: Fuc(a1-2)[Gal(a1-3)]Gal(b1-4)GlcNAc(b1-6)GalNAc
# Summary of the method: as §1
# [33] = molecular target: Fuc(a1-2)[Gal(a1-3)]Gal(b1-4)[Fuc(a1-3)]Glc
# Summary of the method: as §1
# [34] = molecular target: Fuc(a1-2)[Gal(a1-3)]Gal(b1-4)[Fuc(a1-3)]GlcNAc
# Summary of the method: as §1
# [35] = molecular target: Fuc(a1-2)[Gal(a1-3)]Gal(b1-4)[Fuc(a1-3)]GlcNAc(b1-3)GalNAc
# Summary of the method: as §1
binder,measurement,setting,value
B1,glycan array binding signal (z-score),[1],0.169
same,glycan array binding signal (z-score),[2],-0.606
same,glycan array binding signal (z-score),[3],0.788
same,glycan array binding signal (z-score),[4],0.172
same,glycan array binding signal (z-score),[5],0.145
same,glycan array binding signal (z-score),[6],0.092
same,glycan array binding signal (z-score),[7],-0.307
same,glycan array binding signal (z-score),[8],-0.325
same,glycan array binding signal (z-score),[9],0.302
same,glycan array binding signal (z-score),[10],-0.681
same,glycan array binding signal (z-score),[11],0.611
same,glycan array binding signal (z-score),[12],0.086
same,glycan array binding signal (z-score),[13],0.719
same,glycan array binding signal (z-score),[14],-0.05
same,glycan array binding signal (z-score),[15],0.457
same,glycan array binding signal (z-score),[16],-0.154
same,glycan array binding signal (z-score),Fuc(a1-2)Gal6S(b1-4)Glc,-0.727
same,glycan array binding signal (z-score),[17],-0.797
same,glycan array binding signal (z-score),Fuc(a1-2)[Gal(a1-3)]Gal,-0.086
same,glycan array binding signal (z-score),[18],0.904
same,glycan array binding signal (z-score),[19],0.514
same,glycan array binding signal (z-score),[20],-0.602
same,glycan array binding signal (z-score),[21],0.366
same,glycan array binding signal (z-score),[22],-0.214
same,glycan array binding signal (z-score),[23],0.054
same,glycan array binding signal (z-score),[24],-0.779
same,glycan array binding signal (z-score),[25],0.106
same,glycan array binding signal (z-score),[26],-0.199
same,glycan array binding signal (z-score),[27],0.057
same,glycan array binding signal (z-score),[28],0.64
same,glycan array binding signal (z-score),[29],0.064
same,glycan array binding signal (z-score),[30],-0.166
same,glycan array binding signal (z-score),[31],1.3
same,glycan array binding signal (z-score),[32],-0.541
same,glycan array binding signal (z-score),[33],-0.854
same,glycan array binding signal (z-score),[34],-0.22
same,glycan array binding signal (z-score),[35],-0.548

# Copied from the results shown (2 entries):
binder,measurement,setting,value
B1,glycan array binding signal (z-score),[7],-0.307
same,glycan array binding signal (z-score),[8],-0.325
